Data reported in the supplement of paper PMC6078165.

Test system: BT20
Assay: relative JC-1 red fluorescence (viability) vs pre-drug, coculture with fibroblast (fraction); higher = more viable cancer cells
Conditions: 0.1 µM
Description: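 JC-1 labelled TNBC cells cocultured 1:1 (1,500 cells each) with CellTrace Violet stained primary or stromal fibroblasts in 384-well plates in FluoroBrite medium, treated with one of 42 anticancer drugs at 0.1, 1, 10 or 100 uM. JC-1 red fluorescence (mitochondrial integrity in cancer cells only) was read by plate reader every 8 h for 72 h. Values are normalised to each well's pre-drug value. The stock of one drug was tenfold lower, so its dose labels may be too high.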

Cc1c2oc3c(C)ccc(C(=O)N[C@@H]4C(=O)N[C@H](C(C)C)C(=O)N5CCC[C@H]5C(=O)N(C)CC(=O)N(C)[C@@H](C(C)C)C(=O)O[C@@H]4C)c3nc-2c(C(=O)N[C@@H]2C(=O)N[C@H](C(C)C)C(=O)N3CCC[C@H]3C(=O)N(C)CC(=O)N(C)[C@@H](C(C)C)C(=O)O[C@@H]2C)c(N)c1=O [Dactinomycin] (I: T[dV]P[Sar][NMeV] / II: T[dV]P[Sar][NMeV]; ester I:1-I:C, II:1-II:C; linker I:N-II:N via Actinocin(9to1))
relative JC-1 red fluorescence
Conditions | 40 h | 48 h | 56 h | 64 h | 72 h
coculture fibroblast: C12385 | – | 0.734 | 0.724 | 0.721 | 0.717
coculture fibroblast: H6013 | – | 0.875 | 0.772 | 0.778 | 0.855
coculture fibroblast: H6019 | – | 0.74 | 0.722 | 0.715 | 0.708
coculture fibroblast: H6076 | – | 0.716 | 0.728 | 0.724 | 0.711
coculture fibroblast: H6231 | – | 0.724 | 0.696 | 0.685 | 0.674
coculture fibroblast: HADF | – | 0.802 | 0.821 | 0.832 | 0.833
coculture fibroblast: HCFa | – | 0.808 | 0.836 | 0.864 | 0.844
coculture fibroblast: HCPF | – | 0.7484 | 0.7188 | 0.734 | 0.714
coculture fibroblast: HHSteC | 0.811 | 0.798 | 0.815 | 0.819 | 0.803
coculture fibroblast: HMF | 0.666 | 0.607 | 0.55 | 0.513 | 0.483
coculture fibroblast: HPFa | 0.8195 | 0.809 | 0.809 | 0.823 | 0.82
coculture fibroblast: HUF | 0.783 | 0.774 | 0.773 | 0.78 | 0.776
coculture fibroblast: Hs5 | 0.812 | 0.789 | 0.777 | 0.757 | 0.759
coculture fibroblast: Hs27A | 0.834 | 0.879 | 0.819 | 0.829 | 0.903
coculture fibroblast: Hs343T | 0.6456 | 0.588 | 0.529 | 0.513 | 0.477
coculture fibroblast: WS1 | 0.702 | 0.684 | 0.673 | 0.652 | 0.65

Values are relative to the signal before dosing, not to a vehicle control; the signal also falls without drug.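 Fibroblast labels name human fibroblasts: mostly primary ones from tissues such as uterus (C12385, HUF), lung (H6013), bone (Hs27A), adrenal (HADF) and skin (WS1), plus mammary HMF and breast cancer-associated Hs343T. The cancer cells are basal-like or mesenchymal-like triple-negative breast cancer lines. The paper calls a changed response a hit when it shifts by more than 3x the replicate standard deviation. The tissue of the other fibroblasts is not given here.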 Numbered stars: 1 amine (or outer) side, 2 acyl side, 3 side chain; on linkers, the order of the positions; unused ones are H or OH. Bridge positions count the residues as written; N and C are the ends. Square brackets hold non-standard residues; d marks the D form. Peptide text beside a SMILES is read from it. I, II: the chains in the order shown. Actinocin(9to1) = Cc1c2oc3c(C)ccc(C(=O)[*:1])c3nc-2c(C(=O)[*:2])c(N)c1=O; NMeV = CN[C@H](C(=O)O)C(C)C; Sar = CNCC(=O)O
